From article PMC5154354
These are yes or no findings as the source states them, for the method shown. In cells and extracts the contact can be indirect. These calls come from enrichment with a bait or labelling near it, and not all partners need be listed.

Protein sequences, listed by entry. Tags and fused reporters are not part of them. Residues count along the entry.
UniProt P10809, residues 27-573: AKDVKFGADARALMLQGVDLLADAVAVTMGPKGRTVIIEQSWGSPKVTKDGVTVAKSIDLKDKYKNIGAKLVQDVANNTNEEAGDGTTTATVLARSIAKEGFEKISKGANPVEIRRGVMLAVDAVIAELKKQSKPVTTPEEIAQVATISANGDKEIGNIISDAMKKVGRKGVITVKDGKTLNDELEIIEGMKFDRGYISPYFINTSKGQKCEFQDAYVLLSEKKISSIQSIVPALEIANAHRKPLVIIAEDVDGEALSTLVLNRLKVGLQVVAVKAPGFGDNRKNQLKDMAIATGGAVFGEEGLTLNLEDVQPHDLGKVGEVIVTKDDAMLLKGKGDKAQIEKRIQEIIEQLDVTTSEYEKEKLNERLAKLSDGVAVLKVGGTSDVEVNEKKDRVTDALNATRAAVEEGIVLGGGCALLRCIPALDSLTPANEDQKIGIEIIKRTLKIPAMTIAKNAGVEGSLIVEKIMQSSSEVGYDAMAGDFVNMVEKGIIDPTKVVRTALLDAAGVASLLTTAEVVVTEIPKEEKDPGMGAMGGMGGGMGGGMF

Molecular target: T1, Biotin-P17 (synthetic peptide P17, 39 residues, N-terminally biotinylated)
T1 sequence (peptide, biotin on the N-terminus): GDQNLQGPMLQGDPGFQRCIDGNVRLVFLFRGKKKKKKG
Assay: affinity purification with mass spectrometry; biotin-P17 on streptavidin magnetic beads (about 75 ug P17 per pull-down); precleared cytoplasmic and nuclear protein extracts of TRAIL-treated (10 ng/ml, 24 h) Jurkat cells; binding buffer 0.5 M NaCl, 20 mM Tris-HCl, 1 mM EDTA, pH 7.5, on ice 4 h; SDS-PAGE, Coomassie, band excised, MALDI-FTICR MS; only the target purified

binding: binds
Substance: heat shock protein 60 (HSP60) (from UniProt P10809 27-573)
